Results: US7189701B1 (Sankt-Petersburgskaya Obschestvennaya Organizatsiya …, priority 1999, dated 2007)
*: point of attachment. Cbz = O=C(OCc1ccccc1)*; OBn = c1ccc(CO*)cc1

Assay: general procedure: solution-phase peptide synthesis; N,N'-dicyclohexylcarbodiimide / N-oxybenzotriazole; N-oxysuccinimide esters

Row | Substance | step yield (late stage modification step) | final HPLC purity (purification step, 220 nm) | step yield (coupling step)
1 | H-Ala-Glu-Asp-Pro-OH | 86% | 98.56% | 
2 | Cbz-AE(OBn)D(OBn)P-OBn |  |  | 90%
